Measured values as given in the supplement of paper PMC7411640.
Where a name gives a salt, the structure may show the parent alone. Some of the results follow. Single values are uncertain here, since repeats match poorly.

Tested on: MDA-MB-468
Assay: phospho-S6 immunofluorescence (DAPI-normalised), per-plate z-score; higher = higher phospho-S6 signal (less pathway suppression)
Details: 24 h
Procedure: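 GPCR-targeted compound library (MedChemExpress HY-L006) tested on MDA-MB-468 PTEN-null TNBC cells in 384-well plates at 0.1, 1 or 10 uM, combined with vehicle, GDC0941 450 nM or lapatinib 1 uM, for 24 h. Phospho-S6 (S240/244) immunofluorescence normalised to DAPI and expressed as a per-plate z-score; values are the mean of biological triplicates.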

[1] = compound 0.1 µM, co-treatment: GDC0941 450 nM
[2] = compound 0.1 µM, co-treatment: lapatinib 1 uM
[3] = compound 0.1 µM, co-treatment: vehicle
[4] = compound 1 µM, co-treatment: GDC0941 450 nM
[5] = compound 1 µM, co-treatment: lapatinib 1 uM
[6] = compound 1 µM, co-treatment: vehicle
[7] = compound 10 µM, co-treatment: GDC0941 450 nM
[8] = compound 10 µM, co-treatment: lapatinib 1 uM
[9] = compound 10 µM, co-treatment: vehicle

SMILES | phospho-S6 immunofluorescence (z-score) [1] | phospho-S6 immunofluorescence (z-score) [2] | phospho-S6 immunofluorescence (z-score) [3] | phospho-S6 immunofluorescence (z-score) [4] | phospho-S6 immunofluorescence (z-score) [5] | phospho-S6 immunofluorescence (z-score) [6] | phospho-S6 immunofluorescence (z-score) [7] | phospho-S6 immunofluorescence (z-score) [8] | phospho-S6 immunofluorescence (z-score) [9]
CN(C)CCCN1c2ccccc2Sc2ccc(C(F)(F)F)cc21 [Triflupromazine (hydrochloride)] | 2.25 | 0.07 | 1.13 | 0.13 | 0.1 | 0.76 | -0.42 | -2.74 | 2.53
CN1CCN2c3ccccc3Cc3ccccc3C2C1 (centres undefined) [Mianserin (hydrochloride)] | 0.67 | 0.12 | 1 | -0.3 | -0.29 | 0.72 | 1 | -0.76 | 1.67
COc1cc2nc(N3CCN(C(=O)C4COc5ccccc5O4)CC3)nc(N)c2cc1OC (centres undefined) [Doxazosin (mesylate)] | -1.06 | -0.44 | -0.01 | -2.97 | -1.72 | 1.2 | -3.46 | -7.7 | -8.17
CN(C)CC[C@@H](c1ccc(Cl)cc1)c1ccccn1 [Dexchlorpheniramine (maleate)] | -0.31 | -1.72 | -0.71 | -0.5 | -1.82 | -0.44 | 0.61 | -0.08 | -0.33
C[C@]12C=CC(=O)C=C1CC[C@@H]1[C@@H]2[C@@H](O)C[C@@]2(C)[C@H]1CC[C@]2(O)C(=O)CO [Prednisolone] | -1.53 | 0.42 | -0.63 | -1.16 | 1.12 | 0.06 | 0.01 | 1.18 | 0.05
C[C@H](NC(=O)C(C)(C)Oc1ccc(C(F)(F)F)cn1)[C@@H](Cc1ccc(Cl)cc1)c1cccc(C#N)c1 [Taranabant] | -1.46 | -0.74 | 0.3 | -4.43 | -3.1 | -0.6 | -4.19 | -2.35 | -2.4
O=c1cc(CN2CCOCC2)occ1OCCCCCSc1ccnc2cc(C(F)(F)F)ccc12 | -1.06 | -0.18 | 0.12 | -2.25 | 0.25 | -1.69 | -2.93 | -3.04 | -3.82
CCCCc1ccc(NS(=O)(=O)c2ccc(F)cc2)cc1 | -0.74 | -0.43 | -0.49 | -1.74 | -1.51 | -1.36 | -3.59 | -8.48 | -10.2
C=CCN1CCc2nc(N)sc2CC1 | 0.29 | 0.9 | 0.6 | 0.72 | 0.75 | 0.68 | 0.68 | 0.22 | 0.33
CC(C)(N)C(=O)N[C@H](COCc1ccccc1)C(=O)N1CCC2(CC1)CN(S(C)(=O)=O)c1ccccc12 [Ibutamoren (Mesylate)] | -0.99 | -0.2 | -0.08 | -0.99 | -1.24 | -0.21 | -2.77 | -7.75 | -5.38
c1ccc2c(c1)CCCC2C1=NCCN1 (centres undefined) [Tetrahydrozoline (hydrochloride)] | 0.36 | 0.46 | -0.03 | 0.71 | 0.12 | 0.05 | 0.32 | 0.87 | 0.75
CN1CCN2c3ncccc3Cc3ccccc3C2C1 (centres undefined) [Mirtazapine] | 0.2 | 0.22 | -0.87 | 0.47 | 0.96 | -1.75 | 0.65 | 0.99 | -0.48
O=c1ccc2ccc(OCCCCN3CCN(c4cccc5sccc45)CC3)cc2[nH]1 [Brexpiprazole] | 0.89 | -0.12 | -0.44 | 0.71 | -0.04 | 0.43 | -5.22 | -6.92 | -4.57
CCN(CC)Cc1ccc(C(=O)N(CCc2ccccc2OC)[C@@H]2CCNC2)cc1 | -0.92 | -0.8 | -0.3 | -0.97 | -0.27 | -1.11 | 0.19 | 0.1 | 0.12
CC1(C)O[C@@H]2C[C@H]3[C@@H]4CCC5=CC(=O)C=C[C@]5(C)[C@@]4(F)[C@@H](O)C[C@]3(C)[C@]2(C(=O)CO)O1 [Triamcinolone (acetonide)] | -1.9 | 1.7 | -0.33 | -1.83 | 0.98 | -2.18 | -1.69 | 1.39 | -1.2
Cc1noc(-c2ccc(-c3ccc(CC(=O)O)cc3)cc2)c1NC(=O)O[C@H](C)c1ccccc1 [AM095 (free acid)] | 1.27 | 0.13 | -0.07 | 1.67 | 0.73 | 0.75 | 1.08 | 0.37 | 0.82
CN1N=C2CCN(C(=O)[C@@H](COCc3ccccc3)NC(=O)C(C)(C)N)C[C@@]2(Cc2ccccc2)C1=O [Capromorelin (Tartrate)] | 0.08 | 0.16 | 0.34 | 0.54 | -0.02 | 0.17 | -0.05 | -0.67 | -0.14
Nc1nc2c(cnn2CCc2ccccc2)c2nc(-c3ccco3)nn12 | -1.69 | 3.31 | 3.08 | -1.81 | 4.87 | 5.33 | -0.2 | 1.51 | 3.1
OCCOCCN1CCN(C(c2ccccc2)c2ccccc2)CC1 [Decloxizine (dihydrochloride)] | -1.03 | -1.46 | -0.84 | -0.09 | -0.56 | 0.19 | 0.55 | -0.6 | -0.19
CN1CCc2c(c3ccccc3n2Cc2ccccc2)C1 [Mebhydrolin (napadisylate)] | 0.08 | 0.71 | 0.16 | 0.78 | 0.36 | 0.09 | -0.29 | -1.06 | 0.64
CCCc1nc2c(C)cc(-c3nc4ccccc4n3C)cc2n1Cc1ccc(-c2ccccc2C(=O)O)cc1 [Telmisartan] | 0 | 0.4 | 0.35 | -0.27 | -0.49 | 0.3 | 0.54 | 1.6 | 0.35

Full records, quoted from the list. Order of values: phospho-S6 immunofluorescence (z-score) [1]	phospho-S6 immunofluorescence (z-score) [2]	phospho-S6 immunofluorescence (z-score) [3]	phospho-S6 immunofluorescence (z-score) [4]	phospho-S6 immunofluorescence (z-score) [5]	phospho-S6 immunofluorescence (z-score) [6]	phospho-S6 immunofluorescence (z-score) [7]	phospho-S6 immunofluorescence (z-score) [8]	phospho-S6 immunofluorescence (z-score) [9]
`CN1N=C2CCN(C(=O)[C@@H](COCc3ccccc3)NC(=O)C(C)(C)N)C[C@@]2(Cc2ccccc2)C1=O` [Capromorelin (Tartrate)] is entered as 0.08	0.16	0.34	0.54	-0.02	0.17	-0.05	-0.67	-0.14
`c1ccc2c(c1)CCCC2C1=NCCN1` (centres undefined) [Tetrahydrozoline (hydrochloride)] is entered as 0.36	0.46	-0.03	0.71	0.12	0.05	0.32	0.87	0.75
